The target of this series is FixJ (phosphorylated by YF1 variants in situ) (UniProt P23221). Briefly: EMSA. The following applies: 1 mM ATP, 10 mM HEPES pH 8.0 (200 mM for C62A variants, plus glucose oxidase/glucose/catalase), 80 mM KCl, 2.5 mM MgCl2, 0.1 mM EDTA, 100 ug/ml BSA, 10% glycerol, recombinant protein, residues 1-205, protein details: N-terminal His6 (not cleaved), label: 5'-TAMRA on forward strand.

No signal at the amounts used counts as a negative. Construct, isoform or probe ends are uncertain for at least one entry. Weaker means in comparison with the reference protein, sequence or condition of that experiment.

For the sequence “GAGCGATATCTTAAGGGGGGTGCCTTACGTAGAACCC (double strand) [FixK2 promoter DNA]”, the binding result (YF1 C62A, blue light, ROS scavenger, small portion in complex) is reported as “binds more weakly”; the binding result (YF1 C62A, dark, ROS scavenger) was “binds”; the binding result (YF1 H22P, blue light) is “binds”; the binding result (YF1 H22P, dark) is “no binding”; the binding result (YF1 H22P:C62A, blue light, with ROS scavenger (catalase, glucose, glucose oxidase)) was “binds”; the binding result (YF1 H22P:C62A, blue light, without ROS scavenger) is “no binding”. The binding result is “no binding” (YF1 H22P:C62A, dark); “no binding” (YF1 WT, blue light (FixJ dephosphorylated)); “binds” (YF1 WT, dark (phospho-FixJ)).

These data come from PMC4682037, “Signal transduction in light–oxygen–voltage receptors lacking the adduct-forming cysteine residue” (Nature Communications, 2015).
